The text below walks through data of publication PMC8657793, “Synthesis, In Vitro and In Silico Anticancer Activity of New 4-Methylbenzamide Derivatives Containing 2,6-Substituted Purines as Potential Protein Kinases Inhibitors” (International Journal of Molecular Sciences, 2021).

For orientation: IC50 means the midpoint of a concentration-inhibition curve.

Bounds are passed on as bounds.

Experiment [1] relates to HL-60 (promyelocytic leukemia). Kind of experiment: MTT anti-proliferative assay, HL-60. Format: cell-based. To be noted: Homo sapiens, 48 h. How it is done: (§1) To determine the selectivity of the synthesized compounds 7–16 toward various cancer cells and normal human cells, the anti-proliferative activity against K562 (chronic myelogenous leukemia), HL-60 (promyelocytic leukemia), MCF-7 (breast adenocarcinoma), HeLa (cervix carcinoma), HepG2 (human liver cancer), A549 (lung carcinoma), OKP-GS (renal cell carcinoma), and normal cells RPMI 1788 (B lymphocyte, the human cell line) was investigated.
(§2) Each in vitro experiment was performed at least in triplicate and the standard deviation of absorbance was less than 10% of the mean. For the in vitro assays, a stock solution (1% DMSO in the appropriate buffer with the tested compound diluted under sonication) was prepared from which several dilutions were made with the appropriate buffer.
(§3) Human cell lines were obtained from the Institute of Cytology, Russian Academy of Sciences. […] Cellular sensitivities to synthesized compounds and standards were measured with the MTT assay. […] The optical density was read on a HALO MPR-95 Microplate Reader (Dynamica Scientific Ltd., Melbourne, Victoria, Australia) at 570 nm. […] The average of three parallel measurements was calculated for each concentration of test compound. […] The half maximal inhibitory concentration (IC50) was determined graphically for active compounds.

The subject of experiment [2] is K562 (chronic myelogenous leukemia). Put plainly: MTT anti-proliferative assay, K562. Format: cell-based, human. To be noted: 48 h. As to the method:
as §1, §2, §3

Take `Cc1ccc(NC(=O)c2ccc(CN3CCN(C)CC3)cc2)cc1Nc1nccc(-c2cccnc2)n1` [Imatinib, imatinib, reference compound]: the values for the IC50 in experiment [1], in experiment [2] and in experiment [2] (listed as imatinib) were 10200 nM, 60 ± 30 nM and less than 1000 nM, respectively.
